Results are given in words; binding and its absence hold for the method and conditions named. Binding seen in cells or lysates may run through a third protein.
What was measured:
[1] = target: T1, RHD3 in the 3-in-1 BiFC vector (Arabidopsis) (UniProt P93042); assay: split reporter; 3-in-1 BiFC vector, agroinfiltrated N. benthamiana leaves (OD600 = 0.01), confocal images 72 h later; ER marked by mCherry-HDEL
T1 sequence: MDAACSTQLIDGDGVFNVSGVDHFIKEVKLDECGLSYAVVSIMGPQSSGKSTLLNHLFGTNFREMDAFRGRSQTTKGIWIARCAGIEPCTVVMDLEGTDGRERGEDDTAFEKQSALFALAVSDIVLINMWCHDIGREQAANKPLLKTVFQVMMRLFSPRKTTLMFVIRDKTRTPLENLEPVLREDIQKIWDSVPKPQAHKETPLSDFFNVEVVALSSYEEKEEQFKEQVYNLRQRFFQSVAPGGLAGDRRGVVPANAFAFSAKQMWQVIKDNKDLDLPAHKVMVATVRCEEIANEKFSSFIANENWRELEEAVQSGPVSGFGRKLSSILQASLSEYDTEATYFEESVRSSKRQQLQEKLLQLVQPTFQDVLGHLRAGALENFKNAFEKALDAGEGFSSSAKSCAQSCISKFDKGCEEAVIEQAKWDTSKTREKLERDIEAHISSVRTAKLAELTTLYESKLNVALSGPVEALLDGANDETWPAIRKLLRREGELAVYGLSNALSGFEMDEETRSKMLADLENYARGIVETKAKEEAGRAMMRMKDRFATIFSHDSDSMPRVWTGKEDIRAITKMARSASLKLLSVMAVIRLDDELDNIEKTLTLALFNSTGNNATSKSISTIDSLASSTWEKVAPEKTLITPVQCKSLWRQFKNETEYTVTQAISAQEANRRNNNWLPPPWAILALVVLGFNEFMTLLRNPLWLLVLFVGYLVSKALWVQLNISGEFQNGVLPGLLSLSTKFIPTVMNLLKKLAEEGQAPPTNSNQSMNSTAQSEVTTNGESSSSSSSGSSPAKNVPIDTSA

Protein sequences, listed by entry. Tags and fused reporters are not part of them. Residues count along the entry.
UniProt Q8S926, residues 1-118: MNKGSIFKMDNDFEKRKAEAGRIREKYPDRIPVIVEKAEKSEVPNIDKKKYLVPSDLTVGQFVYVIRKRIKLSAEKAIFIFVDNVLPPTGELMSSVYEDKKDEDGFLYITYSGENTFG

[2] = target: RHD3(ΔAIM1) in the 3-in-1 BiFC vector (Arabidopsis) (UniProt P93042); assay: as above

| binding [1] | binding [2] | Substance |
| --- | --- | --- |
| no binding |  | p24 in the 3-in-1 BiFC vector |
|  | no binding | ATG8e in the 3-in-1 BiFC vector (from UniProt Q8S926 1-118) |

Source: PMC8907713
